Values from PubChem BioAssay AID1224826 (NIAID, 2016)
Aim: 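Regulators of Tlr4 signalling leading to Tnf-alpha expression in macrophages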 (primary screen). Cells: RAW264.7 G9 macrophages from mouse bearing reporters for p65 (GFP) and the Tnf promoter (mCherry). Reagents: siRNA pool against mouse genes, 100 nM. Time to read-out: 16 h of LPS stimulation, after 2 days of siRNA transfection. Conditions: bacterial lipopolysaccharide (Salmonella minnesota R595), 10 ng/ml. Read-out: 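Nuclear mCherry signal of the Tnf promoter reporter measured by imaging after background removal, scaled to each plate median and turned into robust z-scores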. Scale: Tnf reporter robust z-score: higher = stronger Tnf promoter reporter signal after LPS. Call rule: 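a well counts as active at a score of -1.3 or below (Tlr4 knock-down control median) or above 3 (raised signal); controls and wells holding fewer than 50 cells are excluded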. Calls: active = Tnf reporter clearly lowered or raised; inactive = no clear change in Tnf reporter.
In all, the deposit lists about 17,000 reagents; below is a random part of them. Over the whole deposit, about 1,110 (6.6%) are marked active. 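Active means lowered or raised reporter signal; replicate intensities are raw and not normalised per plate.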 Further read-outs or replicates are left out here. Reagent sequences are not shown.

Silencing of Uqcr11 (GeneID 66594) came out at: Tnf reporter robust z-score -0.24; fewer than 50 cells in well enough cells in well; inactive.
After knock-down of Ptprm (GeneID 19274) the results were Tnf reporter robust z-score 0.33; fewer than 50 cells in well enough cells in well; inactive.
With knock-down of Mrpl1 (GeneID 94061), the screen gave Tnf reporter robust z-score -0.82; fewer than 50 cells in well enough cells in well; inactive.
With knock-down of Klf15 (GeneID 66277), the screen gave Tnf reporter robust z-score -0.73; fewer than 50 cells in well enough cells in well; inactive.
For Prune1 (GeneID 229589), the values are Tnf reporter robust z-score -0.1; fewer than 50 cells in well enough cells in well; inactive.
Depletion of Ppig (GeneID 228005) resulted in: Tnf reporter robust z-score 0.05; fewer than 50 cells in well enough cells in well; inactive.
With knock-down of Trpm2 (GeneID 28240) the results were Tnf reporter robust z-score -0.59; fewer than 50 cells in well enough cells in well; inactive.
Depletion of Rab36 (GeneID 76877) gave: Tnf reporter robust z-score -0.19; fewer than 50 cells in well enough cells in well; inactive.
Prpf31 (GeneID 68988) showed Tnf reporter robust z-score -0.8; fewer than 50 cells in well enough cells in well; inactive.
Knock-down of Adgrf1 (GeneID 77596) gave: Tnf reporter robust z-score 0.91; fewer than 50 cells in well enough cells in well; inactive.
After knock-down of Cntn3 (GeneID 18488) the results were Tnf reporter robust z-score 0.19; fewer than 50 cells in well enough cells in well; inactive.
After knock-down of Sgsm3 (GeneID 105835) the results were fewer than 50 cells in well fewer than 50 cells per well; well left out of calls; inactive.
Against Fndc3a (GeneID 319448) the deposit lists Tnf reporter robust z-score -0.2; fewer than 50 cells in well enough cells in well; inactive.
With knock-down of Or7a41 (GeneID 18357) the results were fewer than 50 cells in well fewer than 50 cells per well; well left out of calls; inactive.
Lsm11 (GeneID 72290) showed Tnf reporter robust z-score 0.97; fewer than 50 cells in well enough cells in well; inactive.
Knock-down of Mafa (GeneID 378435) gave: Tnf reporter robust z-score 0.11; fewer than 50 cells in well enough cells in well; inactive.
Against Zfp553 (GeneID 233887), the values are Tnf reporter robust z-score 0.23; fewer than 50 cells in well enough cells in well; inactive.
With knock-down of Srd5a2 (GeneID 94224), the record shows Tnf reporter robust z-score -0.17; fewer than 50 cells in well enough cells in well; inactive.
Or8k27 (GeneID 258403) showed Tnf reporter robust z-score 0.84; fewer than 50 cells in well enough cells in well; inactive.
With knock-down of Tubg2 (GeneID 103768), the screen gave Tnf reporter robust z-score -0.63; fewer than 50 cells in well enough cells in well; inactive.
After knock-down of Anks4b (GeneID 72074), the record shows Tnf reporter robust z-score 1.07; fewer than 50 cells in well enough cells in well; inactive.

2 entries from above, sorted by “Tnf reporter robust z-score”, high to low.
Anks4b (GeneID 72074) — Tnf reporter robust z-score: 1.07; fewer than 50 cells in well: enough cells in well; Call: inactive
Tubg2 (GeneID 103768) — Tnf reporter robust z-score: -0.63; fewer than 50 cells in well: enough cells in well; Call: inactive
